Data from paper PMC11561307 (Nature Communications, 2024).

What was measured:
[1] = HO2CPh{Tm} recovery from spiked mouse liver lysate with or without SPE (LC-MS/MS); design: species or system C57BL/6J mice
[2] = LC-MS/MS method validation (LOD, LOQ) for HO2CPh{Ln} tags
[3] = HO2CPh{Tm} recovery in elution fractions of SPE columns (Supp. Fig. 26)
[4] = Solid-phase extraction of HO2CPh{Ln} tags: recovery per fraction on different cartridges; details: SPE
[5] = peptide synthesis; PyOAP, DIPEA (conjugation in DMSO); details: conjugation step, based on PrRP31; 1 step, TFA salt
[6] = general procedure: peptide synthesis; PyOAP, DIPEA (conjugation in DMSO); details: conjugation step
[7] = 1, 2 and 5 nM triplicate solutions in presence of mouse liver lysate (matrix blank), HO2CPh{Y} internal standard, 10 mM NH4OAc diluent, n = 9 points

Compound: O=C([O-])CN1CCN2CCN(CC(=O)[O-])CCN(CC1)Cc1cccc(n1)-c1cnnn1Cc1cc(-c3ccc(C(=O)O)cc3)cc(n1)C2.[Tm+3] [HO2CPh{Tm}]
- HO2CPh{Tm} - recovery, % average ([1]; Supp. Fig. 27B, experiment II, Strata-X SPE, biological replicate 1, average of 3 technical replicates): 61.9%
- HO2CPh{Tm} - recovery, % ([1]; Supp. Fig. 27B, experiment II, Strata-X SPE, biological replicate 1, technical replicate 1): 62.2%
- HO2CPh{Tm} - recovery, % ([1]; Supp. Fig. 27B, experiment II, Strata-X SPE, biological replicate 1, technical replicate 2): 61.5%
- HO2CPh{Tm} - recovery, % ([1]; Supp. Fig. 27B, experiment II, Strata-X SPE, biological replicate 1, technical replicate 3): 62.1%
- HO2CPh{Tm} - recovery, % average ([1]; Supp. Fig. 27B, experiment II, Strata-X SPE, biological replicate 2, average of 3 technical replicates): 70.2%
- HO2CPh{Tm} - recovery, % ([1]; Supp. Fig. 27B, experiment II, Strata-X SPE, biological replicate 2, technical replicate 1): 65.2%
- HO2CPh{Tm} - recovery, % ([1]; Supp. Fig. 27B, experiment II, Strata-X SPE, biological replicate 2, technical replicate 2): 72.8%
- HO2CPh{Tm} - recovery, % ([1]; Supp. Fig. 27B, experiment II, Strata-X SPE, biological replicate 2, technical replicate 3): 72.6%
- HO2CPh{Tm} - recovery, % average ([1]; Supp. Fig. 27C, experiment III, Strata-X-C SPE, biological replicate 1, average of 3 technical replicates): 58.0%
- HO2CPh{Tm} - recovery, % ([1]; Supp. Fig. 27C, experiment III, Strata-X-C SPE, biological replicate 1, technical replicate 1): 55.3%
- HO2CPh{Tm} - recovery, % ([1]; Supp. Fig. 27C, experiment III, Strata-X-C SPE, biological replicate 1, technical replicate 2): 58.4%
- HO2CPh{Tm} - recovery, % ([1]; Supp. Fig. 27C, experiment III, Strata-X-C SPE, biological replicate 1, technical replicate 3): 60.2%
- HO2CPh{Tm} - recovery, % average ([1]; Supp. Fig. 27C, experiment III, Strata-X-C SPE, biological replicate 2, average of 3 technical replicates): 78.0%
- HO2CPh{Tm} - recovery, % ([1]; Supp. Fig. 27C, experiment III, Strata-X-C SPE, biological replicate 2, technical replicate 1): 76.7%
- HO2CPh{Tm} - recovery, % ([1]; Supp. Fig. 27C, experiment III, Strata-X-C SPE, biological replicate 2, technical replicate 2): 81.4%
- HO2CPh{Tm} - recovery, % ([1]; Supp. Fig. 27C, experiment III, Strata-X-C SPE, biological replicate 2, technical replicate 3): 75.9%
- accuracy: R (recovery) ([2]; 10 nM pentaplicate solutions in mouse liver matrix blank, HO2CPh{Y} internal standard, n = 5): 101.80%
- accuracy: u(R) (recovery uncertainty) ([2]; 10 nM pentaplicate solutions in mouse liver matrix blank, n = 5): 3.4%
- limit of detection (LOD) [2, 7]: 0.26 nM
- limit of quantification (LOQ) [2, 7]: 0.78 nM
- linearity: linear ([2]; F-test against Fcrit, duplicate calibration solutions): yes
- linearity: F ([2]; F-test, duplicate calibration solutions, Fcrit 3.97 (Lu), 3.58 (Tm)): 0.04
- repeatability (precision): repeatable ([2]; c 50.0 nM, pentaplicate solutions in mouse liver matrix blank): yes
- repeatability (precision): rel. std. dev. ([2]; c 50.0 nM, pentaplicate solutions in mouse liver matrix blank, HO2CPh{Y} internal standard): 6.0%
- accuracy: accurate ([2]; t-test against tcrit 2.78, 10 nM pentaplicate solutions): yes
- accuracy: t ([2]; t-test, 10 nM pentaplicate solutions, tcrit 2.78): 0.53
- HO2CPh{Tm} - recovery, % ([3]; Supp. Fig. 26A, SPE column chr...bond HR-X, fraction 1): 0.0%
- HO2CPh{Tm} - recovery, % ([3]; Supp. Fig. 26A, SPE column chr...bond HR-X, fraction 2): 0.762%
- HO2CPh{Tm} - recovery, % ([3]; Supp. Fig. 26A, SPE column chr...bond HR-X, fraction 3): 93.5%
- HO2CPh{Tm} - recovery, % ([3]; Supp. Fig. 26A, SPE column sep-pak C18, fraction 1): 0.0%
- HO2CPh{Tm} - recovery, % ([3]; Supp. Fig. 26A, SPE column sep-pak C18, fraction 2): 8.9%
- HO2CPh{Tm} - recovery, % ([3]; Supp. Fig. 26A, SPE column sep-pak C18, fraction 3): 9.7%
- HO2CPh{Tm} - recovery, % ([3]; Supp. Fig. 26A, SPE column sep-pak C18, fraction 4): 79.1%
- HO2CPh{Tm} - recovery, % ([3]; Supp. Fig. 26A, SPE column sep-pak C18, second line printed as fraction 4): 0.0%
- HO2CPh{Tm} - recovery, % ([3]; Supp. Fig. 26B, SPE column strata-X-C, fraction 1): 0.0%
- HO2CPh{Tm} - recovery, % ([3]; Supp. Fig. 26B, SPE column strata-X-C, fraction 2): 0.0%
- HO2CPh{Tm} - recovery, % ([3]; Supp. Fig. 26B, SPE column strata-X-C, fraction 3): 102.2%
- HO2CPh{Tm} - recovery, % ([3]; Supp. Fig. 26B, SPE column strata-X-C, fraction 4): 0.0%
- HO2CPh{Tm} - recovery, % ([3]; Supp. Fig. 26B, SPE column strata-X-C, second line printed as fraction 4): 0.0%
- recovery ([4]; chr...bond C18 ec (first block), fraction 1, Supp. Fig. 26B): 0.0%
- recovery ([4]; chr...bond C18 ec (first block), fraction 2, Supp. Fig. 26B): 0.0%
- recovery ([4]; chr...bond C18 ec (first block), fraction 3, Supp. Fig. 26B): 97.3%
- recovery ([4]; chr...bond C18 ec (first block), fraction 4, Supp. Fig. 26B): 1.0%
- recovery ([4]; chr...bond C18 ec (second block), fraction 1, Supp. Fig. 26B): 0.0%
- recovery ([4]; chr...bond C18 ec (second block), fraction 2, Supp. Fig. 26B): 0.0%
- recovery ([4]; chr...bond C18 ec (second block), fraction 3, Supp. Fig. 26B): 99.2%
- recovery ([4]; chr...bond C18 ec (second block), fraction 4, Supp. Fig. 26B): 1.0%
- recovery ([4]; sep-pak tC18, fraction 1, Supp. Fig. 26A): 9.0%
- recovery ([4]; sep-pak tC18, fraction 2, Supp. Fig. 26A): 84.4%
- recovery ([4]; sep-pak tC18, fraction 3, Supp. Fig. 26A): 2.9%
- recovery ([4]; sep-pak tC18, fraction 4, Supp. Fig. 26A): 1.1%
- recovery ([4]; strata-X, fraction 1, Supp. Fig. 26B): 0.0%
- recovery ([4]; strata-X, fraction 2, Supp. Fig. 26B): 0.0%
- recovery ([4]; strata-X, fraction 3, Supp. Fig. 26B): 99.2%
- recovery ([4]; strata-X, fraction 4, Supp. Fig. 26B): 0.0%
- recovery ([4]; strata-X-C, fraction 1, Supp. Fig. 26A): 0.0%
- recovery ([4]; strata-X-C, fraction 2, Supp. Fig. 26A): 0.0%
- recovery ([4]; strata-X-C, fraction 3, Supp. Fig. 26A): 59.1%
- recovery ([4]; strata-X-C, fraction 4, Supp. Fig. 26A): 38.1%
- recovery ([4]; strata-X-CW, fraction 1, Supp. Fig. 26A): 0.0%
- recovery ([4]; strata-X-CW, fraction 2, Supp. Fig. 26A): 40.3%
- recovery ([4]; strata-X-CW, fraction 3, Supp. Fig. 26A): 36.2%
- recovery ([4]; strata-X-CW, fraction 4, Supp. Fig. 26A): 1.4%

Compound: SRTHRHSMEIRTPDINPAWYASRGIRPVG NHRF2
- conjugation yield [5]: 79%

Compound: {Lu}PhCO-AYFHVG-NH2
- conjugation yield ([6]; based on [HCO2CPh{Lu}]+[TFA]−·1.4TFA·3.2H2O): ≤96%

Compound: {Tm}BnCO-AYFHVG-NH2
- conjugation yield ([6]; based on [HCO2CBn{Tm}]+[TFA]−·0.2TFA·7.0H2O): ≤87%

Compound: {Y}PhCO-AYFHVG-NH2
- conjugation yield ([6]; based on [HCO2CPh{Y}]+[TFA]−·0.6TFA·4.8H2O): ≤89%
